According to the supplement of paper PMC5949888:
Most values lie at the floor of the assay. Slopes are relative: functional sequences can read slightly below zero.

test system: Saccharomyces cerevisiae PS128 hsf1 delta, HSF1(1-493) fusion; assay: growth estimate (transactivation domain function in HSF1 fusion, heat-shock survival) (a.u. (slope of normalised read count over time)); higher = stronger growth at 37°C, i.e. more transactivation activity; conditions: library: random library
Procedure: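 Random 60-nt DNA library encoding peptides of up to 20 aa, fused to the C-terminus of yeast HSF1 residues 1-493 (C-terminal TAD deleted) and expressed from the native HSF1 promoter on a CEN plasmid in hsf1-deleted S. cerevisiae PS128. Cells were selected at 37°C on -trp 5-FOA plates for 0, 2, 4, 6 and 8 days and amplicons were sequenced. Growth estimate is the slope of a robust linear fit of total-sum-normalised read counts (normalised to the first time point) over time, using at least 2 replicates. Sequences are classed functional (TAD activity) above a threshold of -0.13, set from stop-codon control sequences.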

Substance | growth estimate
AKKGPDSFSGWDTDFKYCRC | < -0.25
AKLLS | < -0.25
AKLRSVHGWTENVCVPPRS | < -0.25
AKMITDI | < -0.25
AKPERANSHLSPAVTGSQPP | < -0.25
AKQTIIRQGGPK | < -0.25
AKRFGRRRPVMKSQLITA | < -0.25
AKRSSLEIWMVFDY | < -0.25
AKSQKLSASVDTGQGRL | < -0.25
AKSQLASRQTSLAAG | < -0.25
AKSVTALAEVISWADRIYGV | < -0.25
AKYESVRTIDSDAVRVNECD | -0.198
ALARQRSRLEQGILEEHTYN | < -0.25
ALCAVWTEDSLTL | < -0.25
ALDGMPVYKPLKARTSAR | < -0.25
ALDLNP | < -0.25
ALDR | < -0.25
ALEAGNEGISYYGLQSRSRC | < -0.25
ALFASRTGSWGFLNSLRNVC | < -0.25
ALGFVRTATVITGESCHSLG | < -0.25
ALGHSVRHSTYLQWQTKAES | < -0.25
ALGNVNLIRSRRQAILHSCQ | -0.227
ALH | < -0.25
ALHENY | < -0.25

An excerpt of these results, tab-delimited.
Substance	growth estimate
AKPERANSHLSPAVTGSQPP	< -0.25
AKQTIIRQGGPK	< -0.25
AKRFGRRRPVMKSQLITA	< -0.25
AKRSSLEIWMVFDY	< -0.25

Further records:

Substance | growth estimate
ALHKGAGSCSLPAPVGRSAS | < -0.25
ALIIDN | < -0.25
ALKCVGSCFPRLLHLNKGLG | < -0.25
ALKSPGVPPWYGPC | < -0.25
ALLGSRRDLYVPHVSPVISR | < -0.25
ALNLKKREGVFQQDVIKSFD | < -0.25
ALP | < -0.25
ALPIIKVSAIPHWEHAHE | < -0.25
ALPIPSDH | < -0.25
ALQWQG | < -0.25
ALRAMLSTV | < -0.25
ALRFNGETWVPRFTSPSSLR | < -0.25
ALRGQFCEALLMGFRTF | < -0.25
ALRHFMISYNTILKLFRR | < -0.25
ALRLSRCAL | < -0.25
ALRTIPIVQSKLPLSKGATS | < -0.25
ALSDSAESECSIASIQHVPG | < -0.25
ALSGRLDGCCQGLDDLARER | < -0.25
ALSIPIRWKDLGSETSSRNF | < -0.25
ALSLVLSTPLLVTGDEPRLR | < -0.25
ALSRPPRNVRR | < -0.25
ALSSYKRSCIAGNLTPTSYY | < -0.25
ALSWYVTLSRAIMQRLGTCR | < -0.25
ALTYNRVFSSGTSH | < -0.25

Fetched one by one from the list above (3):
Substance | growth estimate
AKSQLASRQTSLAAG | < -0.25
ALPIPSDH | < -0.25
ALDLNP | < -0.25

Later entries

Substance | growth estimate
ALVCWPMAMTLDAFFLS | < -0.25
ALVELTSYPSPVVPCCQC | < -0.25
ALVLALSLCDREQGRTGPWP | < -0.25
ALVMFTRYQKHRCNNVTRVM | < -0.25
ALVTKRREVLGACVSGSTAR | < -0.25
ALWFGDENHLPLQLRRNPCM | < -0.25
ALWTYRFDGHQREHVDWNCK | < -0.25
ALWVSGLNAHGVCLPAWITG | < -0.25
ALYAMCFCLRGGSVEGS | -0.235
ALYQRARRTDI | < -0.25
ALYVTRVSCRRVLHATIY | < -0.25
ALYWVPLAKVERSFVECLGL | < -0.25
AMA | < -0.25
AMAV | < -0.25
AMCLIGYGFLCLT | < -0.25
AMDRRRLGLRRELSKKGSID | < -0.25
AMESASPGPLSVKCSPHRPV | < -0.25
AMGWAFELTLLPGGTCFLPL | -0.248
AMHCRTAV | < -0.25
AMIFR | 0.183
AMMSPF | < -0.25
AMNCRVPFCEVTCTFWSISA | -0.243
AMPTSGGLRAKPSMGH | < -0.25
AMRPCRSVDGPACTTASVSA | < -0.25

In a second layout: entries from further up.
Substance,growth estimate
AMHCRTAV,< -0.25
AMPTSGGLRAKPSMGH,< -0.25

Next records.

Substance | growth estimate
AMRRLGWQCRR | < -0.25
AMRRYKVRGPTELLLNVPPG | < -0.25
AMSCECFVPSTLLVVIPNTW | < -0.25
AMTLALLGVFGKGCKRYQYE | < -0.25
AMYYTPLCLIVVEFGVTEAV | < -0.25
ANALPVGLDKRLGLAQLRKT | < -0.25
ANGGRTDS | < -0.25
ANGSVAISRQPTGRHGLPQQ | < -0.25
ANHSSAGGDRGSAFMGTVHD | < -0.25
ANINGRRHLILRCGSDGCLV | < -0.25
ANLFHVCSLC | < -0.25
ANLNESRCNCSQPPPSDSGQ | < -0.25
ANLTDIVQEYP | < -0.25
ANNLVKVRSQYPLNRALFGG | < -0.25
ANPR | < -0.25
ANSPYRCVGFCKHGNHILVV | < -0.25
ANSVKYQSPVVVGAEV | < -0.25
ANTANHLGAAVAQPWEETQR | < -0.25
ANTITKSQNL | < -0.25
ANYYS | < -0.25
APASLR | < -0.25
APCF | < -0.25
APFGDGCVVLTFPGTACTRP | < -0.25
APNIASWPCDTISSLYLGPS | < -0.25

Substance | growth estimate
APP | < -0.25
APPLASALV | < -0.25
APPPS | < -0.25
APQRCPAIALVTAA | < -0.25
APRGRLLSESAMSRLEQDHA | < -0.25
APRGVVPGCVTRFTE | < -0.25
APRLSALGTVGFCLARHGRT | < -0.25
APRTLRCEVLSGS | -0.239
APSAVHNRCQPRSARGSAFP | < -0.25
APSLTLGGLTGTGFPIGLPG | < -0.25
APSRIYVTLHVRTRRRFVNR | < -0.25
APSVS | < -0.25
APTV | < -0.25
APTYKLSTQQ | < -0.25
APVGHKKVPPE | < -0.25
APVGVGTAECLTSVVILCVR | < -0.25
APVGYW | < -0.25
APVRGLKDRSAVISYGASHV | < -0.25
APYGSAYKTNYWTRGCKGYR | < -0.25
AQANLVSGLITIHQLLPSCS | < -0.25
AQASMPGHPEAYTIPVLRRP | < -0.25
AQATWVPLTVSVQVGGSVLA | < -0.25
AQAVLRNRSVFSAGVY | < -0.25
AQESGRKDLLVWKVDGLKQP | < -0.25

Substance | growth estimate
AQFGILSAVHGPTTKERRSC | < -0.25
AQILE | < -0.25
AQKATNKLE | < -0.25
AQLCSYRVQEQDVPDYQSCE | < -0.25
AQLECFAGYQPRLESNGATR | < -0.25
AQLLVFVADAVLM | < -0.25
AQRAARTTYDEPVQHRGTGR | < -0.25
AQSKGFCGALVFASKQVARV | < -0.25
AQSLSSRIIGSSKLVVIVGP | < -0.25
AQSSAQCCTGRDSLIPGDRL | < -0.25
AQVGALPGSRSVPREANPDA | < -0.25
AQVYP | < -0.25
AQYGGDTPQGSRNFGAREGA | < -0.25
AQYTDEGAWLLW | -0.0226
ARAT | < -0.25
ARDLISTIMLSLE | < -0.25
ARDV | < -0.25
AREFASNRIQGE | -0.217
AREGKAF | < -0.25
ARETCLPATKVPGSF | < -0.25
ARFGSEPWV | < -0.25
ARFICLRADDARSGRPLLMA | < -0.25
ARFPLPVNRIGGRGP | -0.129
